Values of other authors in patent US20120053239A1, “TREATMENT FOR INTESTINAL GAS, BLOATING, MICROSCOPIC COLITIS, INFLAMMATORY BOWEL DISEASE AND TRAVELER'S DIARRHEA USING COLLOIDAL BISMUTH SUBCITRATE” (priority 2006, published 2012).
At least one structure is not confirmed: it was looked up by name or label, or the drawing left a doubt.

Details: randomized, controlled trials; cited from earlier work

## CCCC1O[C@@H]2C[C@H]3[C@@H]4CCC5=CC(=O)C=C[C@]5(C)[C@H]4[C@@H](O)C[C@]3(C)[C@]2(C(=O)CO)O1 (stereo partly shown) [budesonide]
  efficacy in microscopic colitis: highly effective treatment
